## Library screen at single concentrations

Measurements from “University of Dundee, Small-Polar-MMV Screening Library” (2021), ChEMBL document CHEMBL3988442.

Results are given as percent effect. The record does not define 0% and 100%; most values in the screen are far below 50% and negative numbers occur (in some assays of this library far below -100). This is an unselected part of the compounds tested. Two or more numbers in one place are separate tests of the same structure; such repeats can differ widely.

A: 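Phenotypic screen: M. tuberculosis growth, cholesterol and DPPC medium, 4 days; the read-out is not stated. Concentration: 50 µM. Direction is inferred from retests: higher values go with more growth inhibition. Of about 69,000 compounds tested this way, about 370 (0.54%) reached 50% or more in at least one test.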
B: 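Whole-cell growth test on Mycobacterium tuberculosis, read after 3 days in glucose-containing 7H9 medium; the read-out is not stated. Compounds at 50 µM. Higher reads as more growth inhibition (inferred: compounds with an IC50 in retests scored well above the rest). Of about 69,000 compounds tested this way, about 760 (1.1%) reached 50% or more in at least one test.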

Compound	A	B
COCCCN1CC2(CCN(C(=O)c3ncc(F)cc3F)CC2)CC1=O	4.184	-2.071
O=C(O)C(F)(F)F.[H][C@@]12CCN(c3cccnc3)C[C@]1([H])CN(C(=O)CC1CCCC1)C2	12.69	5.183
C[C@@H]1CN(CC(C)(C)N2CCCCC2)C[C@@]1(O)C1CC1	-6.23	2.129
O=C1NCCN(Cc2ccoc2)C1CC(=O)N1CCc2sccc2C1 (centres undefined)	15.7 and -13.58	-3.704
CCCc1c(C(=O)N2CCN(Cc3ccccn3)CC2)cnn1C	-11.19	-3.286 and -21.29
[H][C@@]12C[C@H](C(=O)N3CCCC3)[C@@]([H])(CN(C(=O)NCc3ccccc3C)C1)O2	10.87	33.13
O=C(CCn1cccn1)NCCOc1ncc(Cl)cc1Cl	-50.44	3.521
COC(=O)N1CCCC(C(=O)NCc2cc3cccc(OC)c3o2)C1 (centres undefined)	-3.401	-21.79
NC(=O)N1CCC(C(=O)NCc2nncn2-c2ccccc2)CC1	-22.13	-11.78
CCCc1nc(N(C)Cc2cnc(NC)nc2)c2cnn(C)c2n1	-10.42	-1.729 and -3.329
CC(NCCCc1cnn(C)c1)c1ccc(Br)s1 (centres undefined)	8.189	7.572
CCOc1ncnc2c1CCN(Cc1csc(C)n1)CC2.O=C(O)C(F)(F)F	-15.67	-5.012
O=C(O)C(F)(F)F.[H][C@]12CC[C@@]3(N=C(C)N(C)C3=O)[C@@]1([H])CN(CC(C)C)C2	4.662	4.228 and -21.35
CCc1cc(N2CCC(NCc3ccc(C)o3)CC2)ncn1	-1.102	19.44
Cn1cccc1C(=O)N1CCC2(CCN2c2ncccn2)C1.O=C(O)C(F)(F)F (centres undefined)	1.593	15.6
Cc1ccccc1CN(CCN(C)C)Cc1ccc(C(=O)O)cc1	11.17	-11.56
CCN(CC)S(=O)(=O)c1ccc(C(=O)NC(C)(C)C)cc1	-39.79	14.98
Cc1ccc2c(n1)N(CCN(C)C)CCN(C(=O)c1ccsc1)C2	-6.144 and -3.844	6.026
Cc1cc(NC(=O)c2ccc(N3CCOCC3)cc2)[nH]n1	-0.5586	-6.911
CN1CCC(c2cccc(NCc3ccncc3)n2)CC1	23.52	8.496
Cc1cc2c(C)cc(O)cc2c(=O)o1	-4.553	-10.72 and -0.1027
O=C(O)C(F)(F)F.[H][C@@]12CCN(Cc3ccc(F)cc3)[C@]1([H])CC[C@H](COCC1CCOCC1)O2	-23.95	-31.47
COC(=O)[C@H](CCSC)NC(=O)Cc1c(C)nn(-c2ccccc2)c1C	11.21	10.59
Cc1occc1C(=O)N1CCC2(CCCN(CC3CCC3)C2=O)C1 (centres undefined)	3.243	9.58 and -5.892
CCS(=O)(=O)N1CCOC2(CCCN(c3ccccn3)C2)C1.O=C(O)C(F)(F)F (centres undefined)	-7.901	-4.89 and -15.2
O=C(c1ccc2[nH]ccc2c1)N1CCCCC1c1nc[nH]n1 (centres undefined)	3.861	9.641
COCC(=O)Nc1cnc(N2CCCC2)nc1	6.71	-25.81
CC(C)c1ncc(CN2CCOC(C(=O)Nc3ccccc3)C2)cn1 (centres undefined)	-18.29	4.399
Clc1ccc2[nH]c3c(c2c1)CCCC3c1nn[nH]n1 (centres undefined)	-11.16	3.323
Cc1ccc(CN(C)Cc2ncc(C(C)(C)C)o2)o1	-34.53 and -11.62	-28.51
COCc1n[nH]/c(=N/C(=O)COc2cnc(C)cc2O)s1	-5.447	-11.39 and -4.416
CC(Nc1cccc(CN2CCOC2=O)c1)C(=O)Nc1cccc(F)c1 (centres undefined)	-2.258	0.09815
COCC1CN(Cc2ccoc2)Cc2nn(C)cc21.O=C(O)C(F)(F)F (centres undefined)	9.224	3.844
[H][C@]12CN(C(=O)c3nonc3C)CC[C@@]1(O)CCN(C1CCCCC1)C2	-1.606 and -7.581	-7.977 and -2.554
OCc1n[nH]c(-c2ccc(F)cc2)n1	-29.64	-7.982 and -3.869
[H][C@@]12CCN(C[C@@H]1CN1CCc3ccccc3C1)[C@@H](CNC(=O)COC)C2	-4.511	0.8179 and 3.804
Cc1cc(OCCC(=O)NCc2ccc(F)cc2)nnc1C	-12.58 and -5.841	14.32
COc1cccc(S(=O)(=O)NC(=O)c2c(C)noc2C(C)C)c1	-20.05	3.366
Cc1cc(C)c(CNC(=O)N2CCN(c3ncccn3)CC2)c(=O)[nH]1	-0.5348	-19.51
Cc1ccccc1Oc1ncccc1CNS(C)(=O)=O	-18.35	-11.92
Cc1nc(CNC(=O)c2cc(COc3ccccc3)[nH]n2)n[nH]1	-18.65	-28.14
COc1cc(C)nc(N2CCN(C(=O)COCC3CC3)CC2)n1	13	6.63
CC(=O)N(Cc1noc(C)n1)C1CCN(CC2CCCC2)C1 (centres undefined)	-8.955	-2.438

The first 2 entries again:

Compound	A	B
COCCCN1CC2(CCN(C(=O)c3ncc(F)cc3F)CC2)CC1=O	4.184	-2.071
O=C(O)C(F)(F)F.[H][C@@]12CCN(c3cccnc3)C[C@]1([H])CN(C(=O)CC1CCCC1)C2	12.69	5.183